This passage reports log2 fold change results from the supplement of paper PMC10849652.

By UniProt entry, the sequences of proteins in these tests, tags left out. Where a name states a change or a piece, a line headed by the entry shows the natural chain unless it says otherwise.
UniProt Q9NS69: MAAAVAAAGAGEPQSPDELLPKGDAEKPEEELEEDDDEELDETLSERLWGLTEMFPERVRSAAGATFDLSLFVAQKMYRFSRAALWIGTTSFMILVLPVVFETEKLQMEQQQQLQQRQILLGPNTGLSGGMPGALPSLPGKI
UniProt Q16890: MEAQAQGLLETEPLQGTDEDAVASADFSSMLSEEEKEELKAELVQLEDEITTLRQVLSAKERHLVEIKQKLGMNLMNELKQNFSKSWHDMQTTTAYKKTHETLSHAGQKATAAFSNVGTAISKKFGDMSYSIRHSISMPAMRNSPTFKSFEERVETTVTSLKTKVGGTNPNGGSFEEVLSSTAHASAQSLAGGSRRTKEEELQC
UniProt O60784, whole entry, looked up: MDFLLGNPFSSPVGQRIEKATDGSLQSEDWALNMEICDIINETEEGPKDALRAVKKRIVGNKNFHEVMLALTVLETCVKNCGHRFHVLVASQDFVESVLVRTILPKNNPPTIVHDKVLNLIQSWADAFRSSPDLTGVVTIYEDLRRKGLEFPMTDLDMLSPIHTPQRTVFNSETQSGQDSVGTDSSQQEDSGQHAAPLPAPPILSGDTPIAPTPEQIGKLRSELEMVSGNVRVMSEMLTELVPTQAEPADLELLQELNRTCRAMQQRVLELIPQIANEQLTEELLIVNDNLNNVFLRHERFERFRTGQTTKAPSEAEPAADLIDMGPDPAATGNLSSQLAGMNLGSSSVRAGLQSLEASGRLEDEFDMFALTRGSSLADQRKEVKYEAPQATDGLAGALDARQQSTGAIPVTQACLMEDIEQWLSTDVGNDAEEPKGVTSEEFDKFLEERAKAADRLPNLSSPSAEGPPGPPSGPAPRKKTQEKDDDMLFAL
UniProt Q8NCS4: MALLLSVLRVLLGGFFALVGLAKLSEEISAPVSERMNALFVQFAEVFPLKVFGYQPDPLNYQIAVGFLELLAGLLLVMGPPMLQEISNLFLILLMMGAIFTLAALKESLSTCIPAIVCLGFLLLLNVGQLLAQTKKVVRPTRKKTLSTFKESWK
UniProt P62328: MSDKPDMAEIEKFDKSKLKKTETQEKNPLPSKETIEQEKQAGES
UniProt Q9BTX3: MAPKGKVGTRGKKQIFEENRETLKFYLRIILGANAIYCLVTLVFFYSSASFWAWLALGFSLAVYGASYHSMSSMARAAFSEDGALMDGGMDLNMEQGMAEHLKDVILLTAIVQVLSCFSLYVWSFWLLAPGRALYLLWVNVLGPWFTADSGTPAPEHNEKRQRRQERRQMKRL
UniProt Q9NWD8: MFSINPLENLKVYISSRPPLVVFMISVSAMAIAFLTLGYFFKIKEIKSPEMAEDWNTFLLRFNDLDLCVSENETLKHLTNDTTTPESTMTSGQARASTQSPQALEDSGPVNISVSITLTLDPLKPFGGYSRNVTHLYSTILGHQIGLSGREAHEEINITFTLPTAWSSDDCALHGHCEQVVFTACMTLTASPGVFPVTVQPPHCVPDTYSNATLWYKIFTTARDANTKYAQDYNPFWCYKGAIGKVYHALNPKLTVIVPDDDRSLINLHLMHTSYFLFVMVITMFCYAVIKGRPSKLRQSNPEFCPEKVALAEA
UniProt P02585, whole entry, looked up: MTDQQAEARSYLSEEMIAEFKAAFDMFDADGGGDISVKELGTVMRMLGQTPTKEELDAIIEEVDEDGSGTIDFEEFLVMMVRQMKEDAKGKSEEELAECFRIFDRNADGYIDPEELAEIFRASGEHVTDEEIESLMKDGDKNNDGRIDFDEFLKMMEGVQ
UniProt Q8N2U0: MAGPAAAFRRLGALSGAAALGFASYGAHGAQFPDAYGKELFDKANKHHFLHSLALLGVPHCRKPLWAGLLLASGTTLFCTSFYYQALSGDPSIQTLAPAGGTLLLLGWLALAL
UniProt Q2T9K0: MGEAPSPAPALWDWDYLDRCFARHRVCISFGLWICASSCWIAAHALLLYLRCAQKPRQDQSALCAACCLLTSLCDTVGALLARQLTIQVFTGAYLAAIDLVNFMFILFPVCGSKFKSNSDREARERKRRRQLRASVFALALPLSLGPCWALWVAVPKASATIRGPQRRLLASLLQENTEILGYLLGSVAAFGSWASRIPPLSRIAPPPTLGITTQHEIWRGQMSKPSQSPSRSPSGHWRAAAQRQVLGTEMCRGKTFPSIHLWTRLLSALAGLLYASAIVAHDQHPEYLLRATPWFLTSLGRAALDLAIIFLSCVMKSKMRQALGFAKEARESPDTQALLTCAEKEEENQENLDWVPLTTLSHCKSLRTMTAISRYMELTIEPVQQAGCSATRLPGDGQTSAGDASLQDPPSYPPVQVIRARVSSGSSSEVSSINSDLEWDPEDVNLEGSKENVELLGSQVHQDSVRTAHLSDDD
UniProt Q4KMQ1: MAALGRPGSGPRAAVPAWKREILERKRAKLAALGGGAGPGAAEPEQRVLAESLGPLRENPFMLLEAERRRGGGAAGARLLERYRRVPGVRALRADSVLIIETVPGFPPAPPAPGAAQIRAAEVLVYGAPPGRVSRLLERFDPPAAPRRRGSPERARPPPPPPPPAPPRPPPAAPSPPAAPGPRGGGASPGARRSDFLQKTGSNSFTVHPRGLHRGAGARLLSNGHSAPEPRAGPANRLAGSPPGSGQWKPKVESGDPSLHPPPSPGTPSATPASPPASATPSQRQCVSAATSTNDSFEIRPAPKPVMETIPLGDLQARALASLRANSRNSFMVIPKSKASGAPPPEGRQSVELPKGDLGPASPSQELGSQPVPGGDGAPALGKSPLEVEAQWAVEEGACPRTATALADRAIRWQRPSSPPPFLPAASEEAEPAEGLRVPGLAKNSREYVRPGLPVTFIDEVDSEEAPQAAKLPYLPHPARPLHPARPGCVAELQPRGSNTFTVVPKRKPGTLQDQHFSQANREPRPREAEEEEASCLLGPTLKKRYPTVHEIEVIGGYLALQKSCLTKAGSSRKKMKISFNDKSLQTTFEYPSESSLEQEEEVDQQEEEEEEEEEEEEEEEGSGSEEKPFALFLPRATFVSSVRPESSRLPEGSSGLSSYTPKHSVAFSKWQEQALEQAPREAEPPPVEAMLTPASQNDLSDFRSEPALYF
UniProt O95271: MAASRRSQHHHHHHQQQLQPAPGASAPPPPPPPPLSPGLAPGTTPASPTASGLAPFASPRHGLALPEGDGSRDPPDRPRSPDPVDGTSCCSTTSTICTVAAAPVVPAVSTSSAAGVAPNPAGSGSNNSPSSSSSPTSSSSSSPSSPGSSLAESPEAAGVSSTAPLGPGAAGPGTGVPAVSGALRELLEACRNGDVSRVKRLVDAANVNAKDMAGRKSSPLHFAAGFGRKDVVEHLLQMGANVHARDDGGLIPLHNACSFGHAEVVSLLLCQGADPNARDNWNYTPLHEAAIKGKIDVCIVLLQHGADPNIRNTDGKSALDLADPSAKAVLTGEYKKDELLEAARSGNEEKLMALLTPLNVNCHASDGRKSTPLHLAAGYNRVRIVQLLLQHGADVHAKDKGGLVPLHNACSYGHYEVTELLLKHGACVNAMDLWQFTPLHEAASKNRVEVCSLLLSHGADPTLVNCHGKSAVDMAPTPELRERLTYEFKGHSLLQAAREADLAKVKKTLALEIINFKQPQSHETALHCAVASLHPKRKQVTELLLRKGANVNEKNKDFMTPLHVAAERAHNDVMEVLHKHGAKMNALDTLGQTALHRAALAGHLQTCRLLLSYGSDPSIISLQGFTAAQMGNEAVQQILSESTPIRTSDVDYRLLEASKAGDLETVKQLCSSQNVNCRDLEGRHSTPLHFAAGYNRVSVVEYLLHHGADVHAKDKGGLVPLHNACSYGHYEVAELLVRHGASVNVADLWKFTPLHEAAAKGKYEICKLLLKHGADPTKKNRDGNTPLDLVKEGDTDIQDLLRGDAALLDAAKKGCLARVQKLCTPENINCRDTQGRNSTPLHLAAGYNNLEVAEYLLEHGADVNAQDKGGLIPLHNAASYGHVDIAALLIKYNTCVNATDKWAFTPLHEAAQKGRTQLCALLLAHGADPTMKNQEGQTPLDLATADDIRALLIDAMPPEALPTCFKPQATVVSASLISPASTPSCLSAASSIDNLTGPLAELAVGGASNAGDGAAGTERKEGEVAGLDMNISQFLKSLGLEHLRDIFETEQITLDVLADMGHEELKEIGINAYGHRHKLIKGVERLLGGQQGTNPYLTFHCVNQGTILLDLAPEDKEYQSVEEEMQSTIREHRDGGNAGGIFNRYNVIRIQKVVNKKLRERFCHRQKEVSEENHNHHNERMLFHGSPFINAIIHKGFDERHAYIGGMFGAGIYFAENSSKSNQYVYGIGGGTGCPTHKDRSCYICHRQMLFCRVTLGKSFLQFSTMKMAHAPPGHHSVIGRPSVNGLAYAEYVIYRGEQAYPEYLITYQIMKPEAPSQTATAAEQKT
UniProt P41273, whole entry, looked up: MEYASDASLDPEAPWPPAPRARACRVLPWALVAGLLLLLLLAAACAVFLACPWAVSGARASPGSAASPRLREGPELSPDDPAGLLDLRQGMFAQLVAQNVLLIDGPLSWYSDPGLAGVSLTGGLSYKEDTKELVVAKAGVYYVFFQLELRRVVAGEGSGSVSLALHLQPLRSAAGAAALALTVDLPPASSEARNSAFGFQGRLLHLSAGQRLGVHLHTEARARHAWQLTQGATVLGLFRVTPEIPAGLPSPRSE
UniProt Q5T4D3: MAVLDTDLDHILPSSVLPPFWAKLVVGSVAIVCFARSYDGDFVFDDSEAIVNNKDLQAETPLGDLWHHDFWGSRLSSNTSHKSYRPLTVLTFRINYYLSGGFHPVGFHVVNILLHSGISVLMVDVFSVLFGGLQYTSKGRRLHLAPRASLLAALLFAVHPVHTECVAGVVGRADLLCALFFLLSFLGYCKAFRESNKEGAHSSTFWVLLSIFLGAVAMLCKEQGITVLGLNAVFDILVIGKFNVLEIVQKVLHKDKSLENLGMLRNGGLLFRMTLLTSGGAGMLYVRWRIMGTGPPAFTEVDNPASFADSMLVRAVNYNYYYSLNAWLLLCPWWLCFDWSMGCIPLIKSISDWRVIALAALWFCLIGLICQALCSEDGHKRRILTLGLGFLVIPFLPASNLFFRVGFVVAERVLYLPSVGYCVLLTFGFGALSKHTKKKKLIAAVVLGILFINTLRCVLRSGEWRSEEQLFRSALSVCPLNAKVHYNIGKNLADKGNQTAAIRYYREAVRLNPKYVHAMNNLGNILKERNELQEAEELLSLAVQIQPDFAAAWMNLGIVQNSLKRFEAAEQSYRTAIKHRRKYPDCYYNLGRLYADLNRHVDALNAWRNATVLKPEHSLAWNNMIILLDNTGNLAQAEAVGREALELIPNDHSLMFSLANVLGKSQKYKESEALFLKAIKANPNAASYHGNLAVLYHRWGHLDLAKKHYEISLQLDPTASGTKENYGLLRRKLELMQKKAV
UniProt P21580: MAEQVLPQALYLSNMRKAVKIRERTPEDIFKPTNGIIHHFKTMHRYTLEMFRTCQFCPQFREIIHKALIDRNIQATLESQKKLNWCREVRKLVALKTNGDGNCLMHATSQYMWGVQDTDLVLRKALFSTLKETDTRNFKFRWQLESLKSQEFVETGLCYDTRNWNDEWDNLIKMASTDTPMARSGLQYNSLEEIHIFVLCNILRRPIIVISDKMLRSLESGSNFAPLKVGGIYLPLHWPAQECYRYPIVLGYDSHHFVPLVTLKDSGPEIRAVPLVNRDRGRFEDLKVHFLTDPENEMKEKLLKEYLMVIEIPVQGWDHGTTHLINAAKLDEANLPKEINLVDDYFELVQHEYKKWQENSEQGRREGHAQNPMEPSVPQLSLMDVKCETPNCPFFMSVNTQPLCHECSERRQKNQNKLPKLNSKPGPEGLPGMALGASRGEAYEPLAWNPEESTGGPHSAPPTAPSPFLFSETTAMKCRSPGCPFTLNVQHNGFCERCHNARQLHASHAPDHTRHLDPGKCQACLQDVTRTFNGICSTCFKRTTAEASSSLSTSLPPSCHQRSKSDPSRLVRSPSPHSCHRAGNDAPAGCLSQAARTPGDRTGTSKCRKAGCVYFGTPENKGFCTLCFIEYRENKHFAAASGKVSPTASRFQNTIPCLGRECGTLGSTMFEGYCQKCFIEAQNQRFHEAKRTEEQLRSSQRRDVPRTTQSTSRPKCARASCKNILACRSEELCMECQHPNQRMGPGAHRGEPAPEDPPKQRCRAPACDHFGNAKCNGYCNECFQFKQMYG
UniProt Q0VDI3: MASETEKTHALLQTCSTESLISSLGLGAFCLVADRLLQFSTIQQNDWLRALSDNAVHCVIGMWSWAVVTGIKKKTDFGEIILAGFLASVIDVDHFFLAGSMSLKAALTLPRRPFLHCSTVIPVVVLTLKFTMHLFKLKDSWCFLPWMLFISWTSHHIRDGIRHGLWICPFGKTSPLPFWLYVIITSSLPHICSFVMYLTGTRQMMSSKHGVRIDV
UniProt P06753, whole entry, looked up: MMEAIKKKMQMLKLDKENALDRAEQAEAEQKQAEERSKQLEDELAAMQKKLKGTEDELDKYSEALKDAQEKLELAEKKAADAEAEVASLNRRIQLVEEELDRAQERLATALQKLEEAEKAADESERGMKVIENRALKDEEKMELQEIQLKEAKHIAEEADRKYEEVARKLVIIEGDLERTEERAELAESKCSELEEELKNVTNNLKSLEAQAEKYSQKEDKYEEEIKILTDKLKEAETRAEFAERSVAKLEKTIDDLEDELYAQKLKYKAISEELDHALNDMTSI

The other results are listed elsewhere or left out.

What all share (assay): log2 fold change, soluble protein after heating vs DMSO (PISA); higher = thermal stabilisation; K562 lysate, 10 uM; active = over 0.2 and 3.5 SD of the protein, either way, in both replicates (recomputed)
Compound in experiment [1]: C1=CC=C(C=C1)[C@H](COC2=CC3=C(C=C2)NC(=O)N3)NC(=O)C4=CC=CN(C4=O)CC5=CC(=C(C=C5)F)F
In outline: (§1)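 To prepare the extract, K562 pellets were dounce-homogenised in PBS pH 7.4 with 1 mM MgCl2, giving crude material at 1 mg/mL protein. This was treated with 10 μM compound for 30 min, then heated in aliquots for 3 min over 48°C-58°C before pooling and addition of NP-40 to 0.5% at 4°C. Centrifugation at 21,000xg for 90 min left soluble protein in the supernatant, which TMTpro 16plex LC-MS/MS quantified with equalised channel sums. Results are log-two fold changes in thermal stability compared with solvent controls, from duplicates.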

Compound in experiment [2]: CC1=C(SC2=C1C(=N[C@H](C3=NN=C(N32)C)CC(=O)N)C4=CC=C(C=C4)Cl)C
In outline:
as §1

Compound in experiment [3]: CC1=C2C(=CC=C1)N=C(N(C2=O)C3=CC=CC=C3C)CN4C=NC5=C(N=CN=C54)N
In outline:
as §1

Compound in experiment [4]: c1ccc([C@@H]2C[C@H]2NC2CCNCC2)cc1
In outline:
as §1

Compound in experiment [5]: Cc1sc2c(c1C)C(c1ccc(Cl)cc1)=N[C@@H](CC(=O)OC(C)(C)C)c1nnc(C)n1-2
A digest of the protocol: as §1

Turning to TNIP2 (UniProt Q8NFZ5), the log2 fold change in experiment [1] was inactive: -0.095; in experiment [2], inactive: -0.045; in experiment [3], inactive: -0.051; in experiment [4], inactive: 0.039.
Turning to TOMM22 (UniProt Q9NS69), the log2 fold change was inactive: 0.044 in experiment [1]; inactive: -0.012 in experiment [2]; inactive: 0.003 in experiment [3]; inactive: -0.043 in experiment [5]; inactive: 0.004 in experiment [4].
The like results for TPD52L1 (UniProt Q16890) were, in that order, inactive: 0.062, inactive: 0.032, inactive: -0.019, inactive: 0.024 and inactive: -0.021.
Take TP53BP2 isoform 3 (UniProt Q13625): the log2 fold change in experiment [1] is inactive: -0.006; in experiment [2], inactive: -0.017; in experiment [3], inactive: 0.014; in experiment [5] it was inactive: 0.003; in experiment [4], inactive: 0.099.
Turning to TPD52L2 isoform 7 (UniProt O43399), the log2 fold change was inactive: 0.046 in experiment [1]; inactive: -0.036 in experiment [2]; inactive: -0.024 in experiment [3]; inactive: 0.024 in experiment [5]; inactive: -0.058 in experiment [4].
The like results for TNRC6A (UniProt Q8NDV7) were, in that order, inactive: 0.045, inactive: -0.006, inactive: 0.069, inactive: -0.008 and inactive: 0.062.
For the target TOM1 (UniProt O60784), the log2 fold change is inactive: 0.04 in experiment [1]; inactive: -0.01 in experiment [2]; inactive: 0.047 in experiment [3]; inactive: -0.025 in experiment [5]; inactive: 0.019 in experiment [4].
For TOE1 (UniProt Q96GM8), the log2 fold change was inactive: 0.063 in experiment [1]; inactive: -0.01 in experiment [2]; inactive: 0.03 in experiment [3]; inactive: 0.032 in experiment [5]; inactive: 0.01 in experiment [4].
Regarding TPCN1 isoform 3 (UniProt Q9ULQ1), the log2 fold change was inactive: -0.069 in experiment [1], inactive: 0.041 in experiment [2], inactive: 0.054 in experiment [3] and inactive: 0.991 in experiment [4].
For the target TMEM35B (UniProt Q8NCS4), the log2 fold change in experiment [3] is inactive: -0.246.
With TMEM209 (UniProt Q96SK2), the log2 fold change in experiment [1] was inactive: -0.046; in experiment [2], inactive: -0.087; in experiment [5] it was inactive: -0.19; in experiment [4], inactive: 0.058.
Regarding TMSB4X (UniProt P62328), the log2 fold change in experiment [1] was active: -0.935; in experiment [2] it was inactive: 0.434; in experiment [4] it was inactive: 0.176.
With TMEM208 (UniProt Q9BTX3), the log2 fold change was inactive: -0.084 in experiment [1], inactive: -0.004 in experiment [2], inactive: -0.125 in experiment [5] and inactive: -0.157 in experiment [4].
Turning to TMEM248 (UniProt Q9NWD8), the log2 fold change in experiment [3] was inactive: -0.027; in experiment [5], inactive: 0.054; in experiment [4], inactive: 0.06.
Take TMEM59 (UniProt Q9BXS4): the log2 fold change in experiment [4] was inactive: 0.05.
Take TPT1 (UniProt E9PJF7): the log2 fold change was inactive: 0.177 in experiment [1], inactive: -0.413 in experiment [2] and inactive: 0.239 in experiment [4].
Take TNNC2 (UniProt P02585): the log2 fold change was inactive: -0.017 in experiment [3], inactive: -0.02 in experiment [5] and inactive: 0.043 in experiment [4].
In the case of TMEM256 (UniProt Q8N2U0), the log2 fold change was inactive: 0.083 in experiment [3] and inactive: -0.074 in experiment [5].
On to TMEM44 (UniProt Q2T9K0), for which the log2 fold change in experiment [1] is inactive: -0.003; in experiment [2], inactive: -0.136; in experiment [5], inactive: -0.324.
For TPRN (UniProt Q4KMQ1), the log2 fold change in experiment [5] was inactive: 0.141.
Regarding TNK2 isoform 3 (UniProt Q07912), the log2 fold change in experiment [1] was inactive: -0.146; in experiment [2], inactive: 0.295; in experiment [4], inactive: 0.079.
Regarding TNKS (UniProt O95271), the values for the log2 fold change in experiment [3], in experiment [5] and in experiment [4] were inactive: 0.023, inactive: 0.039 and inactive: -0.035, respectively.
In the case of TPD52L2 isoform 3 (UniProt O43399), the log2 fold change is inactive: -0.058 in experiment [1], inactive: 0.135 in experiment [2] and inactive: 0.098 in experiment [4].
In the case of TNFSF9 (UniProt P41273), the log2 fold change in experiment [4] was inactive: -0.18.
Turning to TMEM41B (UniProt Q5BJD5), the log2 fold change is inactive: -0.027 in experiment [1], inactive: 0.141 in experiment [2], inactive: 0.036 in experiment [5] and inactive: -0.008 in experiment [4].
With TMEM189 (UniProt A5PLL7), the log2 fold change in experiment [1] was inactive: 0.09; in experiment [2], inactive: 0.083; in experiment [5], inactive: 0.141; in experiment [4] it was inactive: -0.051.
TMTC4 isoform 3 (UniProt Q5T4D3): the log2 fold change in experiment [5] is inactive: -0.004.
As for TNFAIP3 (UniProt P21580), the log2 fold change is inactive: 0.052 in experiment [1], inactive: 0.05 in experiment [2], inactive: 0.033 in experiment [5] and inactive: 0.06 in experiment [4].
On to TNNC1 (UniProt P63316), for which the values for the log2 fold change in experiment [1], in experiment [2] and in experiment [4] were inactive: -1.67, inactive: 1.45 and inactive: 1.68, respectively.
Regarding TMEM267 (UniProt Q0VDI3), the log2 fold change in experiment [1] is inactive: 0.007; in experiment [2], inactive: -0.103; in experiment [4], inactive: 0.045.
Turning to TPM3 isoform 3 (UniProt P06753), the log2 fold change in experiment [3] was inactive: -0.048; in experiment [5] it was inactive: -0.041; in experiment [4], inactive: -0.266.
With TMEM268 isoform 3 (UniProt Q5VZI3), the log2 fold change in experiment [5] was inactive: 0.042; in experiment [4] it was inactive: -0.116.
